These are yes or no findings as the source states them, for the method shown. Binding seen in cells or lysates may run through a third protein. Some binding calls cover weakened binding; strength is not graded here.
What was measured:
[1] = target: endogenous WASP from the human B cell line BJAB (human) (UniProt P42768); experiment: co-immunoprecipitation with anti-FLAG M2 from transfected BJAB cells, anti-WASP Western blot
[2] = target: endogenous WASP from the human B cell line BJAB (human) (UniProt P42768); experiment: co-immunoprecipitation with anti-FLAG from BJAB clone 3, anti-WASP Western blot
GST-WASP1-270 = GST-WASP1-270 (UniProt P42768); experiment: in vitro pull-down of mixed bacterial lysates on GSH beads, anti-MBP Western blot

By UniProt entry, the sequences of proteins in these tests, tags left out. Where a name states a change or a piece, a line headed by the entry shows the natural chain unless it says otherwise. Residues count along the entry.
UniProt P42768: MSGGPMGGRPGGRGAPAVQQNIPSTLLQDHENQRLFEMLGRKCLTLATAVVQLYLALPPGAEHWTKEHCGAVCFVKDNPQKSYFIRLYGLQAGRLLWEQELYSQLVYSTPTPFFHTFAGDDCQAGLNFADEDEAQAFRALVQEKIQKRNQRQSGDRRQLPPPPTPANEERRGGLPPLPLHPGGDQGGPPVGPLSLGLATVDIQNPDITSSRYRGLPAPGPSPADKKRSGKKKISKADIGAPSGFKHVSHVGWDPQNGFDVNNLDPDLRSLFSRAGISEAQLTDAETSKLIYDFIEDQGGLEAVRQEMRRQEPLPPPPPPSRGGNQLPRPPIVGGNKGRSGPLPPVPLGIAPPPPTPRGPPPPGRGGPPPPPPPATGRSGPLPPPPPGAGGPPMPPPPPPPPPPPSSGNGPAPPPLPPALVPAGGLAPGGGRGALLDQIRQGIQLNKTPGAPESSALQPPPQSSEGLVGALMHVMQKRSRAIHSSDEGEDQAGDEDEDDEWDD
GST-WASP1-270: residues 1-270 of P42768
endogenous WASP from the human B cell line BJAB: residues 2-502 of P42768
UniProt O43516: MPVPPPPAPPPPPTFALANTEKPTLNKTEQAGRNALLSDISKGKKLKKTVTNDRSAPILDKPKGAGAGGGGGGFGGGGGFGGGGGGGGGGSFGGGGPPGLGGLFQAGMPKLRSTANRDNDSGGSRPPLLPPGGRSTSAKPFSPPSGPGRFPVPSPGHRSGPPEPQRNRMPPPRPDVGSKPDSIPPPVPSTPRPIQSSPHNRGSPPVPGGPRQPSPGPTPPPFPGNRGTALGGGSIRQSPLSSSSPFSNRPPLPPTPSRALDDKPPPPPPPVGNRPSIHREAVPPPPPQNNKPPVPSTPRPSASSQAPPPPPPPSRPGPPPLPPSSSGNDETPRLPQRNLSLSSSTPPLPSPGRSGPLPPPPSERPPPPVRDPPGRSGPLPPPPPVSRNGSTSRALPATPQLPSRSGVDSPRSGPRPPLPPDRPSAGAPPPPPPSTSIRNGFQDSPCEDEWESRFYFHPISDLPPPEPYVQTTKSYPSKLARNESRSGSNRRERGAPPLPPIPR

Row | Substance | binding [1] | binding [2] | binding (GST-WASP1-270)
1 | FLAG-tagged full length WIP (from UniProt O43516 1-503) | binds | binds | 
2 | MBP-WIP4 (from UniProt O43516 321-503) |  |  | binds

From patent US20020199211A1
